From patent WO2006132352A1
No constants are given. Whether binding was seen depends on the method and setting. Some entries that bind do so weakly or less than the wild type.

Chains of the proteins cited; added tags and fusions are not shown. Lines headed by an entry give the natural chain unless they say otherwise; changes in a name come on top.
UniProt P40238: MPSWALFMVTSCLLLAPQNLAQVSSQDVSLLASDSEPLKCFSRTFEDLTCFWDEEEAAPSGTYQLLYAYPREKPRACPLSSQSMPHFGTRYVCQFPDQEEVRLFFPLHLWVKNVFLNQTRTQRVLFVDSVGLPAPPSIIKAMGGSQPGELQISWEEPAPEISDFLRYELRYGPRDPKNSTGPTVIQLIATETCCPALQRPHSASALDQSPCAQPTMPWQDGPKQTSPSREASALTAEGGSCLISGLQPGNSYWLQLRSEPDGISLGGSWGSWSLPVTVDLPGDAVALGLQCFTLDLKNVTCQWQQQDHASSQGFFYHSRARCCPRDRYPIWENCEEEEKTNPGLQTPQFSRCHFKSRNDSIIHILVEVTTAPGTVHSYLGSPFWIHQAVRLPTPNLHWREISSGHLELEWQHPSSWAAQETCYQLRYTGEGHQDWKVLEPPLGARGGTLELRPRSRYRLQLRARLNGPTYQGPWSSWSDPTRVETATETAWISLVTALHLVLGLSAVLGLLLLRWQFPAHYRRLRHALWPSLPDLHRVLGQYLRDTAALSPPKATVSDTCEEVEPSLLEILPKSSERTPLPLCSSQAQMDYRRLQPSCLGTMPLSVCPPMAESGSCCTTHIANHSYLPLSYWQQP

B1: hVB22B u2-wz4(v1) sc(Fv)2 (scFv)
scFv: QVQLVQSGPEVKKPGASVKVSCKASGYTFTNSWMNWVRERPGKGLEWIGRIYPGDGETIYNGKFRVRVTITADESTSTAYMQLSSLRSEDTAVYYCARGYDDYSFAYWGQGTTVTVSSGGGGSGGGGSGGGGSDIVMTQSPLSLPVTPGEPASISCRSSKSLLHSNGNTYLYWFLEKPGQSPQLLIYRMSNLASGVPDRFSGSGSGTDFTLKISRVEAEDVGVYYCMQHIEYPFTFGQGTKLEIKGGGGSGGGGSGGGGSQVQLVQSGPEVKKPGASVKVSCKASGYTFTNSWMNWVRKRPGKGLEWIGRIYPGDGETIYNGKFRVRVTITADESTSTAYMQLSSLRSEDTAVYYCARGYDDYSFAYWGQGTTVTVSSGGGGSGGGGSGGGGSDIVMTQSPLSLPVTPGEPASISCRSSKSLLHSNGNTYLYWFLKKPGQSPQLLIYRMSNLASGVPDRFSGSGSGTDFTLKISRVEAEDVGVYYCMQHIEYPFTFGQGTKLEIK
B2: hVB22B u2-wz4(v3) sc(Fv)2 (scFv)
scFv: QVQLVQSGPEVKKPGASVKVSCKASGYTFTNSWMNWVRERPGKGLEWIGRIYPGDGETIYNGKFRVRVTITADESTSTAYMQLSSLRSEDTAVYYCARGYDDYSFAYWGQGTTVTVSSGGGGSGGGGSGGGGSDIVMTQSPLSLPVTPGEPASISCRSSKSLLHSNGNTYLYWFLKKPGQSPQLLIYRMSNLASGVPDRFSGSGSGTDFTLKISRVEAEDVGVYYCMQHIEYPFTFGQGTKLEIKGGGGSGGGGSGGGGSQVQLVQSGPEVKKPGASVKVSCKASGYTFTNSWMNWVRKRPGKGLEWIGRIYPGDGETIYNGKFRVRVTITADESTSTAYMQLSSLRSEDTAVYYCARGYDDYSFAYWGQGTTVTVSSGGGGSGGGGSGGGGSDIVMTQSPLSLPVTPGEPASISCRSSKSLLHSNGNTYLYWFLEKPGQSPQLLIYRMSNLASGVPDRFSGSGSGTDFTLKISRVEAEDVGVYYCMQHIEYPFTFGQGTKLEIK

Target: MG10 (Gln213 to Ala231 of the human Mpl amino acid sequence) and GST fusion protein (human) (UniProt P40238)
Test: affinity column of immobilised MG10-GST, elution with 100 mM Glycine-HCl pH 3.5

Row | Binder | binding
1 | B1 | binds
2 | B2 | binds
